The values below come from publication PMC7335352.

Data set [1] relates to condensin II-ybbR, Alexa647 (Homo sapiens). The data set can be described thus: EMSA. The settings on record: fluorophore did not affect binding; EMSA: 20 mM HEPES pH 8, 300 mM KCl, 5 mM MgCl2, 1 mM DTT, 10% glycerol, on ice; recombinant protein; label: 6-FAM on reverse strand. In general terms: In EMSA bound probe runs differently from free probe, usually more slowly.
Data set [2] has as its system condensin I-ybbR, Alexa647 (Homo sapiens). As to the kind of experiment: EMSA. As to conditions: fluorophore did not affect binding; EMSA: 20 mM HEPES pH 8, 300 mM KCl, 5 mM MgCl2, 1 mM DTT, 10% glycerol, on ice; recombinant protein; label: 6-FAM on reverse strand.

The exact form of at least one protein or probe is not confirmed. At least one verdict was read from the data and is not stated in words by the source.

Take “CTGTCACACCCTGTCACACCTGTCACAC (double strand) [30-bp dsDNA, 6-FAM]”: the binding result in data set [1] and in data set [2] was “binds” in each case.
